Binding data for four molecules are collected here from article PMC13170167, “Magnetosome organelles are organized through interactions between McaA and McaB that alter the dynamics of the bacterial actin-like protein MamK” (mBio, 2026).

Experiment [1] concerns the target McaA-GFP (Magnetospirillum magneticum AMB-1). Nature of the experiment: affinity purification with mass spectrometry; GFP-Trap agarose beads on lysates of AMB-1 expressing McaA-GFP or McaB-GFP from replicative plasmids (20 L pooled culture); elution with 200 mM glycine pH 2.5; GFP alone as control.
In experiment [2] the target is McaB-GFP (Magnetospirillum magneticum AMB-1). The experiment is described as above.

No constants are given. Whether binding was seen depends on the method and setting. Binding seen in cells or lysates may run through a third protein. A yes stands for co-enrichment or nearness to the bait. Other partners may have been found.

B1: MamA (protein, UniProt Q2W8Q0 1-217)
chain: MSSKPSDILDEVTLYAHYGLSVAKKLGMNMVDAFRAAFSVNDDIRQVYYRDKGISHAKAGRYSQAVMLLEQVYDADAFDVDVALHLGIAYVKTGAVDRGTELLERSLADAPDNVKVATVLGLTYVQVQKYDLAVPLLIKVAEANPINFNVRFRLGVALDNLGRFDEAIDSFKIALGLRPNEGKVHRAIAFSYEQMGRHEEALPHFKKANELDEGASV
Turning to B1, the binding result in experiment [1] and in experiment [2] was “binds” each time.

B2: MamK (protein, UniProt Q2W8Q6 1-347)
chain: MSEGEGQAKNRLFLGIDLGTSHTAVMSSRGKKFLLKSVVGYPKDVIGLKLLGRPYVVGDEAFEMRSYLDIRYPLQDGVLSEISDRDIEVARHLLTHVVKSAEPGPNDEICAVIGVPARASAANKALLLKMAQEVVHTALVVSEPFMVGYGLDKLINTIIVDIGAGTTDICALKGTVPGPEDQVTLTKAGNYVDERLQNAILERHPELQMNVNVACAVKEQFSFVGTPTEVASFEFRAAGKPVRADVTEPVKIACEALMPDIIESIETLLRSFQPEYQATVLQNIVFAGGGSRIRGLAAYVKEKLRPFGDANVTCVKDPTFDGCRGALRLAEELPPQYWRQLGDVSGS
With B2, the binding entry in experiment [1] is listed as “binds”.

B3: Mms6 (protein, UniProt Q2W8R5 1-133)
chain: MGEMEREGAAAKAGAAKTGAAKTGTVAKTGIAAKTGVATAVAAPAAPANVAAAQGAGTKVALGAGKAAAGAKVVGGTIWTGKGLGLGLGLGLGAWGPIILGVVGAGAVYAYMKSRDIESAQSDEEVELRDALA
Turning to B3, the binding entry in experiment [2] is “binds”.

B4: MamJ (protein, UniProt Q2W8Q7 1-506)
chain: MANNRRDRDKGDGSQGEGLSAGGGMPSEPEIVSVTVHPTPTLAVSLKPAQQGDIWASLLESSPWSANHGGRIEPVQPSPAPTRPTESPSVGDLVSRWSQPIWRTPSRVEEVETPESNFVIELEASQPITSDITVSVSDLVIEVQPIQTTEAEPEPELPVAEPEPGVVPVDVVAEAEPEPELPVAEPEPGVVPVDVVAEAEPEPELPVAEPEPEVVPVDVVAEAEPEPELPVAEPEPEVVPVDVVAEAEPEPELPVAEPEPEVVPVDVVAEAEPEPELPVAAPEPEVLPVEVVAEAEPEPELPVAAPEPEVLPVEVVAEAEPEPELPVAAPEPEVVPVDVVAEAEPEPELPVAEPELVHEAAVSEPVAESIEDAVAVPAPATNFGLAELMQAAAAMAPVLASPPSVAPAAKPVREPAKKRKAPPVRKKVATVQDVPVEDLLGGIFGIAGSAVRSVLSLGAGVVGGVVKGGRVIGDNVVAGARRLTGSAEGSCGTCSTSQCDTVGKKK
As for B4, the binding result in experiment [2] is “binds”.
